Measurements reported in US20140377288A1 (University of Texas, published 2014).
Results are given in words; binding and its absence hold for the method and conditions named. Some binding calls cover weakened binding; strength is not graded here.

Chains of the proteins cited; added tags and fusions are not shown. Residues count along the entry.
UniProt P54756, residues 25-573: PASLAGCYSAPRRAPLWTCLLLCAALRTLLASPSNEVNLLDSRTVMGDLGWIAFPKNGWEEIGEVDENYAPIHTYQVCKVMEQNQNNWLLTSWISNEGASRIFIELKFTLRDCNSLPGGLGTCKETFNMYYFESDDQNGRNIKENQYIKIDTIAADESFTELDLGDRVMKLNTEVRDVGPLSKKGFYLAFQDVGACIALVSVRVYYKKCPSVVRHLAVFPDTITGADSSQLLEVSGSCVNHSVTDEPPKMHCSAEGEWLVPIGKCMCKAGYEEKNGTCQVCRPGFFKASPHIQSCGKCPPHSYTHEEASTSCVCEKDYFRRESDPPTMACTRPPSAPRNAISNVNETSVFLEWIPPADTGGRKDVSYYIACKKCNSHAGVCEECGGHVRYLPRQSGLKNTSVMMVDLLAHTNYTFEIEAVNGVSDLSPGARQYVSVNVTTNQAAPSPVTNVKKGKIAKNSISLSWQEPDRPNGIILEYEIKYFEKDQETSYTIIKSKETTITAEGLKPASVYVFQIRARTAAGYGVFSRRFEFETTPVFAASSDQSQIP

Biological target: human EphA5 protein (human) (UniProt P54756)
Test: ELISA with decreasing amounts of target protein, read as OD

binding: binds
B1: 11C12 monoclonal anti-EphA5 antibody (antibody, mouse IgG1, V domains shown)
VH: EVTLKESGGGLVQPGGSRKLSCAASGFTFSTFGIHWVRQAPEKGLEWVAYISGASTTIYYADTVKGRFTISRDNPKNTLFLQMTSLRSEDTAMYYCARYGTSFPYGLDYWGQGTSVTVSS
VL: DIVMTQSPGSLAVSLGQRATISCKASQSVDYDGDSYMNWYQQKPGQPPKLLIYGASNLESGIPARFSGSGSGTDFTLNIHPVEEEDAASYYCQQSNEDPFTFGSGTKLEIK
notes: Murine IgG1 monoclonal antibody from a hybridoma; also called monoclonal antibody 11C12; 11C12 antibody
